Results taken from paper PMC8446001.
Residue numbers refer to the chain shown, from its start. In names and notes the source's numbering stands. These are yes or no findings as the source states them, for the method shown. In cells and extracts the contact can be indirect. Some entries that bind do so weakly or less than the wild type. Tags and fused reporters may be left off the sequences shown.

B1: 2HA-MLC1 wild type (megalencephalic leukoencephalopathy with subcortical cysts 1) (protein, UniProt Q15049 1-377)
chain: MTQEPFREELAYDRMPTLERGRQDPASYAPDAKPSDLQLSKRLPPCFSHKTWVFSVLMGSCLLVTSGFSLYLGNVFPAEMDYLRCAAGSCIPSAIVSFTVSRRNANVIPNFQILFVSTFAVTTTCLIWFGCKLVLNPSAININFNLILLLLLELLMAATVIIAARSSEEDCKKKKGSMSDSANILDEVPFPARVLKSYSVVEVIAGISAVLGGIIALNVDDSVSGPHLSVTFFWILVACFPSAIASHVAAECPSKCLVEVLIAISSLTSPLLFTASGYLSFSIMRIVEMFKDYPPAIKPSYDVLLLLLLLVLLLQAGLNTGTAIQCVRFKVSARLQGASWDTQNGPQERLAGEVARSPLKEFDKEKAWRAVVVQMAQ
B2: 2HA-MLC1-P92S (protein, UniProt Q15049 1-377)
chain: B1 chain with P92S
B3: 2HA-MLC1-C326R (protein, UniProt Q15049 1-377)
chain: B1 chain with C326R

Target: T1, GlialCAM-Flag (glial cell adhesion molecule, wild type) (UniProt Q14CZ8)
T1 sequence: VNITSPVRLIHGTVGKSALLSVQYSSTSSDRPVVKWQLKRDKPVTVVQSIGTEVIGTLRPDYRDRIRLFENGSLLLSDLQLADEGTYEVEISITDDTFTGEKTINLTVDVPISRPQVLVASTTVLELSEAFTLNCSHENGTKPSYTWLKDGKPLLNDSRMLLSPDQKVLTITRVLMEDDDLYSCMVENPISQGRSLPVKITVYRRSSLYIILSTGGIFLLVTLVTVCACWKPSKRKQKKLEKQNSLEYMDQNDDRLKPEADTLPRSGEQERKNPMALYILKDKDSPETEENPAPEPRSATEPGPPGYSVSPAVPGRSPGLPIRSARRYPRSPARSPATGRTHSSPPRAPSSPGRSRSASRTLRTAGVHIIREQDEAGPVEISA
Assay: co-IP; cell surface co-IP (cs-IP) in HeLa cells: anti-GlialCAM Ab against an extracellular epitope bound to the live cell PM on ice for 45 min, unbound Ab washed off, lysis in milder buffer with 0.4% NP-40, magnetic beads (Dynabeads M-280); Western blot with anti-HA or anti-Flag

Binder | binding
B1 | binds
B2 | binds
B3 | binds
